Measured data: PubChem BioAssay AID1159584 (Peter MacCallum Cancer Centre, 2016)

Screen: 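Knock-downs that harm CDH1-null cells more than parental MCF10A cells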 (primary screen)
System: human MCF10A breast epithelial cells, parental and CDH1-null
Knock-down reagent: siRNA against human genes
Detection: 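ATP luminescence (CellTiter-Glo) viability per line relative to mean mock wells over all plates, and the ratio of CDH1-null to parental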
Direction: CDH1-null / parental viability ratio: higher = CDH1-null cells survive relatively better than parental
This is one part, drawn at random, of about 18,000 reagents. Not all columns of the deposit are shown. Reagent sequences are not shown. Not given: the amount of reagent, the time to read-out.

Target gene | PubChem SID | CDH1-null / parental viability ratio
OR7G1 | SID135624428 | 1.08
CCDC66 | SID152151337 | 0.85
BRS3 | SID135620991 | 1.53
CIP2A | SID134318312 | 1
SQOR | SID135621539 | 1.24
PON2 | SID135621819 | 1.3
CDH1 | SID134310124 | 1.11
VCF2 | SID152154142 | 1.42
CTSB | SID152152809 | 1.32
TOP6BL | SID134322270 | 1.12
NMT1 | SID134310391 | 0.96
PKD2L1 | SID134311707 | 1.16
WDR12 | SID134317215 | 0.76
SGF29 | SID134310203 | 0.97
DRC4 | SID134315631 | 0.88
NR2E3 | SID135620673 | 0.9
PLEK2 | SID134324493 | 1.26
GGTLC1 | SID134311314 | 0.99
HTR2B | SID135621037 | 0.78
RGS19 | SID152148638 | 1.01
TSPAN9 | SID135622293 | 1.05
KCNG1 | SID152148688 | 1.11
ZDHHC13 | SID135624000 | 0.93
YBX1 | SID152153637 | 1.26
HDGF | SID134323547 | 1.09
KANSL2 | SID152153444 | 1.1
PLEK | SID135623781 | 0.91
PEX6 | SID152156571 | 0.87
KCNE4 | SID152153301 | 1.12
RNASET2 | SID152152148 | 1.09
THBS1 | SID135623823 | 1.16
SMIM29 | SID152150319 | 0.9
CLMP | SID134315225 | 1.04
LIPE | SID134314184 | 1.14
PRM3 | SID134329470 | 0.85
ITPR3 | SID152154522 | 1.17
ISYNA1 | SID134314395 | 0.74
WDFY2 | SID152156669 | 0.98
SLX1B | SID135620768 | 0.98
ITPA | SID134317894 | 0.93
ODAM | SID152154438 | 1.02
OR4C3 | SID152156700 | 0.96
ACO1 | SID134314687 | 0.89
PWWP3B | SID152148263 | 0.97
CCDC91 | SID152156539 | 1.02
ZNF334 | SID134321854 | 1.14
SEC16B | SID135622881 | 0.86
CDK10 | SID152152801 | 0.91
C1orf159 | SID134326891 | 1.11
FSHR | SID135621003 | 1.29
ARF5 | SID152148411 | 1
HAUS3 | SID152152343 | 1.23
PHTF2 | SID152151343 | 0.97
WFDC3 | SID152152778 | 1.1
LRP11 | SID152148292 | 0.84
CDR2L | SID152151397 | 0.9
GPIHBP1 | SID134322314 | 0.89
ALG12 | SID135624638 | 1.16
NKAIN3 | SID152154551 | 1.07
JMJD4 | SID134318410 | 1.1
ZNF70 | SID134317042 | 0.77
SHOC1 | SID152149123 | 1.13
FUBP3 | SID152154491 | 1.25
ARTN | SID134314643 | 1.23
ABCD1 | SID152152254 | 1.06
MAGEE1 | SID135622688 | 1.06
DERL2 | SID152151329 | 0.88
FASTKD4 | SID134315057 | 0.97

Targets above whose gene name begins with L or l:
Target gene | PubChem SID | CDH1-null / parental viability ratio
LIPE | SID134314184 | 1.14
LRP11 | SID152148292 | 0.84
